Experimental data: PMC4885101
These are yes or no findings as the source states them, for the method shown. In cells and extracts the contact can be indirect. Sequences can lack the tags named with a protein.

The chains behind the UniProt entries cited, without tags or fusion partners.
UniProt Q7Z434: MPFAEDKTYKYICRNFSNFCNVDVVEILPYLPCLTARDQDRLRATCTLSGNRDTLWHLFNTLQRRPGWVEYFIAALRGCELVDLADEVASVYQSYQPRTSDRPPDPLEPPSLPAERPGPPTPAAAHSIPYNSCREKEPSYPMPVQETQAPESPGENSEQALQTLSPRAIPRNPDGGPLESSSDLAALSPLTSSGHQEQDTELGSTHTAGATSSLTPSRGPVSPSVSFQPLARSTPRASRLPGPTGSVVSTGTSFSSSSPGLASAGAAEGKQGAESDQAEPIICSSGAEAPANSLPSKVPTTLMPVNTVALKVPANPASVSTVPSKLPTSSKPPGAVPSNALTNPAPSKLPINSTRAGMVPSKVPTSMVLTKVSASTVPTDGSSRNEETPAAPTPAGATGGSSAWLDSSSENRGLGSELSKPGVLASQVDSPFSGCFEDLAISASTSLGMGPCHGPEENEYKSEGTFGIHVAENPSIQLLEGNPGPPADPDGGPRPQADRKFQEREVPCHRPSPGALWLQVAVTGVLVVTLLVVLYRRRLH

Assays:
[1] = biological target: T1, Flag-tagged TBK1 (UniProt Q9UHD2); test: co-IP
T1 sequence: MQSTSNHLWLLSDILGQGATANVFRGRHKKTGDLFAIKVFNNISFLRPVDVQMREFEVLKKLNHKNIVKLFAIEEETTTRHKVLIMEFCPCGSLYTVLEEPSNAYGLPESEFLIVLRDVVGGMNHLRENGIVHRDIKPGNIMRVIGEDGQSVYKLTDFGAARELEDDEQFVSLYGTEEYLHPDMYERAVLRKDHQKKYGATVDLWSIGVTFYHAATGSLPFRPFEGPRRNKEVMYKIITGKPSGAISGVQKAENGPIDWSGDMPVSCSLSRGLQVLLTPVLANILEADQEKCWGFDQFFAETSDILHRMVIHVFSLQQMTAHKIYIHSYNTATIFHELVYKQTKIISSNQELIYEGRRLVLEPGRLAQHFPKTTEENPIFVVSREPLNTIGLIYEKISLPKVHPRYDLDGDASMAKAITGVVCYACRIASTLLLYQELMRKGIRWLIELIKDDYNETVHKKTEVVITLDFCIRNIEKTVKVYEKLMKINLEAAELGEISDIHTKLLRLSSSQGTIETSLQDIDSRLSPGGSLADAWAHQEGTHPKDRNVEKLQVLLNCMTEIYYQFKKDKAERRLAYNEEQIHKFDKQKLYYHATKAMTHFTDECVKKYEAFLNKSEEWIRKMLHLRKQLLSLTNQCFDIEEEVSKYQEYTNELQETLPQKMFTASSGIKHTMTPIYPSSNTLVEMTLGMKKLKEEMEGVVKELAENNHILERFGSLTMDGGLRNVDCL

[2] = biological target: Flag-tagged MAVS (UniProt Q7Z434); test: co-IP

B1: HA-tagged HACE1 (HECT domain and ankyrin repeat-containing E3 ubiquitin protein ligase 1) (enzyme, UniProt Q8IYU2 1-909)
chain: MERAMEQLNRLTRSLRRARTVELPEDNETAVYTLMPMVMADQHRSVSELLSNSKFDVNYAFGRVKRSLLHIAANCGSVECLVLLLKKGANPNYQDISGCTPLHLAARNGQKKCMSKLLEYSADVNICNNEGLTAIHWLAVNGRTELLHDLVQHVSDVDVEDAMGQTALHVACQNGHKTTVQCLLDSGADINRPNVSGATPLYFACSHGQRDTAQILLLRGAKYLPDKNGVTPLDLCVQGGYGETCEVLIQYHPRLFQTIIQMTQNEDLRENMLRQVLEHLSQQSESQYLKILTSLAEVATTNGHKLLSLSSNYDAQMKSLLRIVRMFCHVFRIGPSSPSNGIDMGYNGNKTPRSQVFKPLELLWHSLDEWLVLIATELMKNKRDSTEITSILLKQKGQDQDAASIPPFEPPGPGSYENLSTGTRESKPDALAGRQEASADCQDVISMTANRLSAVIQAFYMCCSCQMPPGMTSPRFIEFVCKHDEVLKCFVNRNPKIIFDHFHFLLECPELMSRFMHIIKAQPFKDRCEWFYEHLHSGQPDSDMVHRPVNENDILLVHRDSIFRSSCEVVSKANCAKLKQGIAVRFHGEEGMGQGVVREWFDILSNEIVNPDYALFTQSADGTTFQPNSNSYVNPDHLNYFRFAGQILGLALNHRQLVNIYFTRSFYKHILGIPVNYQDVASIDPEYAKNLQWILDNDISDLGLELTFSVETDVFGAMEEVPLKPGGGSILVTQNNKAEYVQLVTELRMTRAIQPQINAFLQGFHMFIPPSLIQLFDEYELELLLSGMPEIDVSDWIKNTEYTSGYEREDPVIQWFWEVVEDITQEERVLLLQFVTGSSRVPHGGFANIMGGSGLQNFTIAAVPYTPNLLPTSSTCINMLKLPEYPSKEILKDRLLVALHCGSYGYTMA
[1]
  binding: no binding
[2]
  binding: no binding
